# In all, about 340,000 compounds went through this assay and about 6,200 (1.8%) were called active. The inconclusive results got no clear call from the source; some entries with a clear call stand among them for comparison. The call rests on the fitted dose curve; in most records, active means well fitted activation curve with a large enough effect; inconclusive means small, poorly fitted or top-dose-only effect; inactive means no such curve, though single readings can be large or run the other way. A potency beside an inconclusive call is a rough fit, not a confirmed value.
# Assay: A quantitative high throughput screen for small molecules that induce DNA re-replication in SW480 colon adenocarcinoma cells. Further: nearly all actives have a fitted effect of over 55% in size. On re-replication activation: % of control where 0% means no effect.
# Conditions: Hoechst DNA content imaging, 48 h; re-replication activation: at 46.1 µM (top of the series) unless noted
# In short: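 Compounds, transferred as 23 nL by pin tool, were incubated with cells for 48 hr; DNA content per nucleus was then quantified by Hoechst staining and fluorescence plate imaging.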
# Potency means the concentration at half of the fitted maximal effect.
SMILES,re-replication activation,Potency
O=C(CSc1nnc(CNC(=O)c2cccs2)o1)Nc1cccc(Cl)c1,inactive: -0.287%,
Nc1ccc2c(c1)OC1(CCCC1)O2,,"inconclusive: 9.2 µM [activator, partial curve]"
Cc1cccc(-n2c(CCCN3C(=O)c4ccccc4C3=O)nc3ccccc3c2=O)n1,inactive: -1.43%,
Cc1oc(-c2cccs2)nc1CN1CCC(CO)(CCOc2ccccc2)CC1,,"inconclusive: 29.1 µM [activator, single point]"
COc1ccc2c(CC(=O)N3CCN(S(=O)(=O)c4cccs4)CC3)coc2c1,,"inconclusive: 32.6 µM [activator, partial curve, poor fit]"
NC(=O)C1CCN(CC(=O)Nc2cc(S(=O)(=O)N3CCOCC3)ccc2N2CCCC2)CC1,inactive: -11.1%,
CN(c1ccc(C(=O)Nc2ccc(F)cc2F)cc1)S(=O)(=O)c1ccccc1,,"inconclusive: 18.4 µM [activator, single point]"
C=CCN(C(=O)Cn1nc(C)n2c(cc3cc(C)ccc32)c1=O)c1ccccc1,,"inconclusive: 9.2 µM [activator, partial curve, poor fit]"
CCn1c(SCC(=O)OC(C)C)nnc1-c1ccccc1,inactive: -134%,
O=C(CCN1C(=O)c2ccccc2C1=O)Nc1sc2c(c1C(=O)NCC1CCCO1)CCC2 (configuration not stated),inactive: -4.96%,
COc1cccc2cc(C(=O)Nc3cccc(C)n3)c(=O)oc12,,"inconclusive: 3.26 µM [activator, partial curve, poor fit]"
CC(NCc1ccc2c(c1)OCO2)C(=O)N1CCc2ccccc21 (configuration not stated),,"inconclusive: 11.6 µM [activator, partial curve, poor fit]"
O=C(O)/C=C/c1cn(-c2ccccc2)nc1-c1ccc(-c2ccc([N+](=O)[O-])cc2)o1,,"inconclusive: 29.1 µM [activator, single point]"
Cc1ccc(-c2cc(C(=O)N/N=C\c3cnn(C)c3C)c3ccccc3n2)cc1C,,"inconclusive: 29.1 µM [activator, single point]"
COc1ccc(NC(=O)CSc2nc3sc(C)cc3c(=O)n2C)c(OC)c1,inactive: -1.64%,
CCOC(=O)c1cc(-c2csc(Nc3c(C)cc(C)cc3C)n2)on1,inactive: 1.6% [at 9.22 µM],
Cc1cccc(OCCCC(=O)NCC(=O)Nc2cccc(C)c2C)c1,,"inconclusive: 0.164 µM [activator, single point]"
COc1ccc(OCCn2c(NC(=O)c3ccco3)nc3ccccc32)cc1,,active: 4.11 µM
Cn1c(CNC(=O)c2ccco2)nnc1SCCOc1ccccc1,inactive: -5.06%,
COC(=O)[C@@H](C)NC(=O)c1ccc2oc(CCc3ccccc3)nc2c1,,"inconclusive: 7.31 µM [activator, single point]"
CC(C)c1ccc(C2=NN(c3ccccc3)C(=O)CC2)cc1,,"inconclusive: 25.9 µM [activator, single point]"
COc1cc(OC)cc(C(=O)NCCNC(=O)c2ccccc2)c1,inactive: 2.13%,
COc1ccc2cc(C(=O)C3CCCN(Cc4cccc(C)n4)C3)ccc2c1 (configuration not stated),,"inconclusive: 20.6 µM [activator, single point]"
CCCc1nc(SCC(=O)Nc2ccc(S(=O)(=O)N(C)C)cc2)c2ccccc2n1,,"inconclusive: 29.1 µM [activator, partial curve, poor fit]"

SMILES,re-replication activation,Potency
CC(C)(C)n1nnnc1C(c1ccc(C#N)cc1)N1CCCC2(CCCCC2)C1 (configuration not stated),inactive: 2.87%,
Cc1ccc2[nH]c3c(c2c1)CCc1cn[nH]c1-3,,"inconclusive: 29.1 µM [activator, partial curve, poor fit]"
Cc1cccc(C(=O)NCc2nnc(SC(C)C(=O)Nc3nnc(C)s3)n2C)c1 (configuration not stated),,"inconclusive: 3.66 µM [activator, full curve, poor fit]"
Cn1c(CNC(=O)c2ccccc2)nnc1SCC(=O)Nc1nccs1,,"inconclusive: 29.1 µM [activator, partial curve, poor fit]"
Cc1cc(-c2nnc(CCC(=O)NCc3cc(F)cc(C(F)(F)F)c3)o2)no1,inactive: 11.3%,
COc1ccc(/C=C2/C(=O)N(CC3CCCO3)C(=S)N2C)c(OC)c1 (configuration not stated),,"inconclusive: 0.0731 µM [activator, full curve, poor fit]"
CC(C)N(CC(=O)Nc1ccc(Cl)cc1C(F)(F)F)C(=O)CCl,,"inconclusive: 20.6 µM [activator, single point]"
CS(=O)(=O)c1ccc(Cl)c(NC(=O)CCl)c1,,"inconclusive: 23.1 µM [activator, single point]"
COc1cccc(N2C(=O)C(CC(=O)Nc3ccc(F)cc3)N(C3CCCCC3)C2=O)c1 (configuration not stated),inactive: -6.7%,
NC(=S)NN=C1CCCCCCCC1,inactive: -4.73%,
CCOC(=O)C(=CNc1nc(-c2ccccc2)c(C(=O)Nc2ccc(-c3ccccc3)cc2)s1)C(=O)OCC,,active: 3.66 µM
CCOC(=O)c1c(C)oc2ccc(OCC(=O)C(C)(C)C)cc12,inactive: -1.21% [at 9.22 µM],
O=c1/c(=C\c2ccc(O)cc2)sc2nc(-c3ccccc3)c(-c3ccccc3)n12,inactive: 2.87%,
Cc1cccc(N=Cc2c(O)cc(C)oc2=O)c1,,"inconclusive: 2.59 µM [activator, single point]"
CC1CCN(CC(=O)Nc2ccccc2C(=O)NC2CC2)CC1,inactive: -2.42%,
Nc1nc(-c2ccccc2)cc(N2CCCCC2)n1,,"inconclusive: 29.1 µM [activator, single point]"
CC(C)P(=O)(c1cccc(C(=O)O)c1)C(C)C,,"inconclusive: 10.3 µM [activator, partial curve, poor fit]"
C(=C\c1ccccc1)/CSc1nnc(-c2ccccn2)n1Cc1ccco1,,active: 20.6 µM
Nc1nnc(CCC2CCCCC2)s1,inactive: -1.15%,
CC1(C)CC(=O)C/C(=N/NC(=O)c2ccc(-c3ccccc3)cc2)C1,,"inconclusive: 29.1 µM [activator, single point]"
Cc1c(C(=O)N2CCC(C)CC2)sc2ncnc(N3CCN(c4ccccc4)CC3)c12,inactive: -6.11%,
CCCCCCCCCCCCCCCC[n+]1cccc(C(=O)N(CC)CC)c1,,active: 20.6 µM
COc1ccc(CN2C(=O)CNC2=S)cc1,inactive: 5.83%,
O=C(COc1ccccc1)NCC(=O)N/N=C/c1ccc(O)cc1O,,"inconclusive: 5.8 µM [activator, partial curve]"

# Taken from above.
# Under Potency, Cc1ccc2[nH]c3c(c2c1)CCc1cn[nH]c1-3 has the entry inconclusive: 29.1 µM [activator, partial curve, poor fit]
# Under re-replication activation, CC1CCN(CC(=O)Nc2ccccc2C(=O)NC2CC2)CC1 has the entry inactive: -2.42%
# Under re-replication activation, Cc1cc(-c2nnc(CCC(=O)NCc3cc(F)cc(C(F)(F)F)c3)o2)no1 has the entry inactive: 11.3%

# (more compounds)

SMILES,re-replication activation,Potency
Cc1ccccc1Oc1nnc(-c2cccs2)c2ccccc12,inactive: 5.22%,
Cc1ccc(N=c2c([N+](=O)[O-])nn(-c3ccccc3)n2O)c(C)c1,,"inconclusive: 35.5 µM [activator, single point]"
O=C(c1cc2ccccc2oc1=O)N1CCOCC1,,"inconclusive: 18.4 µM [activator, single point]"
Cc1ccc(C(=O)N2C(=S)C(c3ccc(F)cc3)=NC23CCN(C)CC3)cc1,,"inconclusive: 14.6 µM [activator, partial curve, poor fit]"
CCOC(=O)C1CCCN(C(=O)c2sc3nc(-c4ccccc4)cn3c2C)C1 (configuration not stated),,"inconclusive: 32.6 µM [activator, single point]"
COCCCNC(=O)c1sc2ncnc(N3CCc4ccccc4C3)c2c1C,,active: 20.6 µM
NC(=O)COc1cccc(/C=N/NC(=O)c2ccc(-n3cccc3)cc2)c1,,"inconclusive: 6.51 µM [activator, single point]"
CCCOC(=O)c1cccc(NC(=O)C(C)(C)C)c1,inactive: -5.76%,
COc1ccc(Cn2cc3c(-c4ccc(F)cc4)nnc-3c3cc(OC)c(OC)cc32)cc1,,"inconclusive: 5.17 µM [activator, full curve]"
S=C(N/N=C/c1cccs1)NC1CC2CCC1C2 (configuration not stated),inactive: -10.2%,
O=C(COC(=O)c1ccccc1Nc1ccccc1)NCc1ccccc1,,"inconclusive: 2.91 µM [activator, full curve, poor fit]"
CCN(Cc1ccccc1)CC(O)COC(c1ccc(OC)cc1)c1ccc(OC)cc1 (configuration not stated),,"inconclusive: 29.1 µM [activator, single point]"
O=C(c1ccc(F)cc1)N1CCC(C(=O)N2CCN(S(=O)(=O)c3cccc(F)c3)CC2)CC1,,"inconclusive: 0.92 µM [activator, full curve, poor fit]"
CCOc1ccc(-n2nc3ccc(N)cc3n2)cc1,,"inconclusive: 18.4 µM [activator, single point]"
FC(F)(F)c1cc(Sc2ccccc2)nc(-c2ccccn2)n1,,"inconclusive: 29.1 µM [activator, single point]"
C=CCOc1cccc(C(=O)/C=C2/C(=O)Nc3ccccc32)c1,,"inconclusive: 25.9 µM [activator, single point]"
COCCn1c(=S)[nH]c2cc(C(=O)N3CCN(Cc4ccc5c(c4)OCO5)CC3)ccc2c1=O,,"inconclusive: 29.1 µM [activator, single point]"
CC(OC(=O)c1oc2ccccc2c1COc1ccccc1)C(=O)NC(N)=O (configuration not stated),inactive: 2.12%,
Cc1cccc(NC(=O)[C@@H](NC(=O)[C@@H]2Cc3ccccc3CN2)C(C)C)c1,,"inconclusive: 6.51 µM [activator, single point]"
COc1ccc(N=C2C(=O)Nc3ccccc32)cc1,,"inconclusive: 13 µM [activator, partial curve, poor fit]"
COc1ccc(C(=O)CCN2CCN(c3ccc(OC)cc3)CC2)cc1,,"inconclusive: 18.4 µM [activator, partial curve, poor fit]"
O=C(Nc1ccsc1C(=O)N1CCCC1)c1ccccc1,inactive: -5%,
O=S(=O)(Nc1ccon1)c1ccc(F)c(F)c1,inactive: 3.24%,
COc1ccccc1C(CNC(=O)c1ccc(NS(=O)(=O)c2ccc(C(C)=O)cc2)cc1)N1CCCC1 (configuration not stated),,"inconclusive: 1.46 µM [activator, full curve, poor fit]"
